Source: PubChem BioAssay AID1508600 (Functional Genomics Laboratory (NCATS/FGL), 2020)
About 3,700 (7%) of roughly 53,000 sequences were called active.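 How the source made its calls: active means gene knockdowns whose robust z-score for IL-1 alpha signal is at least 2 or at most -2, so actives lie on both sides; inactive means the rest.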 The list shows a part of the results.

test: Components of the Cytosolic LPS Sensing Pathway: Gene Identification via Genome-wide siRNA Screen; conditions: RAW264.7 macrophages, IL-1a HTRF, actives lie on both sides, screened at 100 nM (by protocol), cells primed 5 h with Pam3CSK4 first;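 further: robust z of the log signal after scaling to non-targeting control siRNA wells of the plate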
Outline: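 Read-out: IL-1a HTRF on supernatant, divided by plate negative-control median ×100, log-transformed and converted to robust z-score. Cells were RAW264.7 given 100 nM siRNA, Pam3CSK4-primed 5 hours, then LipidA-transfected 24 hour.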

z-score, inactive:
GGGAAAGAAUGGUAUUGUATT against Rmnd5a -0.0117
CCAUAUGUAAAGUGAAACATT against A530013C23Rik -0.346
GGCCAUCAGAGUCAACUGUTT against Immt -0.285
GGUCACUGCUAAAGCCUGATT against Stoml3 0.864
GGUAUGUUUUUCUCACAAGTT against Ehd4 0.417
GGCUGUUUUUACCCUACUUTT against Vmn1r72 -0.441
GUAAACCACUGAAAAACCATT against Siah1b 0.0622
GGACAACUCCCAUAGCCAUTT against Sin3b -0.338
GGCUCGGGUCUUUAACGAATT against Copg1 0.559
GGCUACAACCUGAAAGAUGTT against Ppp2r2b -1.11
GGCUGUAUACCAAUAAAAATT against B4galt6 -0.855
CGCGCAUCCAGGUUAUCUUTT against Slc7a10 0.596
GGAGGAUGUCUUACCAUGGTT against Bhlha9 -0.417
GGAAGUGGGCAGCAUCAUUTT against Pcbp4 0.73
GGAGACUGUGUUUACAGUATT against Olfr347 0.686
GGCUACUGUAAGAUUUCUATT against Mgat4f 1.98
GGGUCUAUGAGCUAAUUAUTT against Psmd5 1.12
GCAUUACUAUGAGCGGGACTT against Pygb 0.307
GGAAAAGAAGCCAAUUCCUTT against Smpx 0.92
CCUGGUUAGAGAAUGGAAATT against Sirpb1a -0.802
GCAUGUUCCAUGGAUUUUATT against Slfn10-ps -1.68
GCACGUUGAACAAUGAAGATT against Unc13a -0.229
GGUUCAAGUUCGCAUACAGTT against Rnf111 1.95
AUCUCGUCUUUGGUUAAUATT against Vmn1r64 -0.95
GGAUGUUAAACUACAUUGATT against Ropn1 -0.051
GGAAAAGAAGAAGCAGAUUTT against Incenp -1.11
GCUGCUUUAGCUUAGUUUUTT against Vwa7 0.457
GCCAUUACCCGGUAUAUGATT against Sesn1 -1.96
GCCUAUAAAACCUUUGCCUTT against Loxl2 -0.918
CCCUGUAAUCAGUAGAAGATT against Afap1l2 -0.752
CCUUUUGAAUGAUAGGGUGTT against Tbcd 0.142
GCUGAUGGCACUAAACACUTT against Glb1l2 1.18
GCUUCUAUGGCAGGAUAAATT against Cd28 -1.07
CCUACUGACGACUCUUAUATT against Vmn2r10 -0.211
GGAGCAACUAAUGAAGAAATT against Dnajc22 -0.064
GGUACUGGAGAAAGUCAAGTT against Pi4kb 0.46
CCAUUUAAGGUCAUCUGCATT against Nxph2 -0.419
CCCACGAGAAGUUUGAAAGTT against Ccdc171 -0.0115
GCACAGAGGAUGUACGUUATT against Cstad -0.665
GGAGACGAGAGGAUCCUCUTT against Chga -1.56
GGCUCUUUGUUAAAUACCCTT against Fitm2 1.38
GGACACAGGCCUAUAUUUUTT against Fam187a 0.647
GGCUGGUGAAAGUCAAGGUTT against Arid4a 0.503
GCGGGUUAACUUGUUUGGUTT against Zcwpw1 0.525
GGAAAAGAGAAGAAGGCACTT against Taf6 0.654
GGACGUAGAUCAUUUCAAUTT against Afm -0.738
GCUAGUUGGGAUACUCAAGTT against Mpp6 -1.28
CCUGAAGUGGAGAUUCAACTT against Kcnj6 -1.27
GCCACUUUAGUAUGGAAUGTT against Nxt1 0.822
GGUUGUAACUUGUAAGGCATT against Rnf144b 0.123
GGUACCUAUUGAGAUCAAGTT against Acot8 0.807
GCCCGUAGAUAUGAUCUUCTT against Vmn1r87 -0.207
GCGAUUCGUCUUCGAGUUCTT against Fam161a 0.483
CCCGACACCAGUGGUAAAATT against Lgsn -0.865
CCAGGAUCCAAAGAGUAUUTT against Olfr521 -1.49
ACAGGAGUCCAUAGCCGUCTT against Aspscr1 -1.47
GGAAGAGAAUAAAACCUCATT against Ptpra -0.781
GCUGAUGGUGUAUAACUCGTT against Gorasp1 -0.124
GCGAAGUUAAAUCUCAUCATT against Tesmin 0.494
GGACUUCUUCUAUUUCAUATT against Fam20a -0.986
GGCUGAAAUCUCAAUGGCUTT against Frem1 -0.426
CGACUUGAUUUCAAAACAUTT against Fbxl13 -0.981
GGCCGAGGUUUUGUUCUUUTT against Polr2g -1.99
GGAAGUGUUCAAACCAGAGTT against Smg5 0.93
GGAUCCUAGGAUAGAAAAUTT against Asgr2 -0.831
GGGAGACAAGUUCAUCAAATT against Gtf2e1 0.308
GGAAUGUUUCUUUAUCACATT against Slc35e4 -0.837
AAGCUGAGAACAGUCGAAGTT against Vasp -0.319
GGAAGAGACAAAGAGUACATT against 4933402J07Rik -0.373
GGUACAUUGGCAUUGUGAATT against Hnrnpf 0.525
CCUAUGAAACCCAUCAUUATT against Farp2 1.06
CCAUGCUGAUUGCUCCGACTT against Cass4 1.46
GCAUAUUCAGCAACAGGUATT against Trim24 0.0934
CGGUACGAGAUGCAAAAAATT against Prkca -0.749
GGAAUACGUAUACUUCAGCTT against Dipk1c 0.495
GCAGCAUAAUUGCUUGCUATT against Pde8b 0.504
GGAUAAGAUAGUGAAAGAATT against Uba2 0.00206
GCUACCACGAAUUUAUAGATT against Nlrp9a -0.896
GGCAAUAAUAAAUAGCACCTT against Homer1 0.8
GCCAAUCUCAAGAUGAAGCTT against Col26a1 0.229
GGAAAAACGAUACUUGAUUTT against Gria3 -0.751
GCACACCUACCACAACAUGTT against S100a11 1.28
CGAAGUGUUGGGAAGAUUATT against Tmprss11f -0.412
CCUACCGUUACCUAAGUGATT against Kcnj5 -1.15
GGGAGAUUGAGAACUUUGCTT against Gpx7 -0.269
GGUUGCAUGGCACAAGUCUTT against Olfr1213 -0.34
GGAGAUCAAGAAUCUCUCUTT against Rnf112 1.44
GGCGACCCUGACUUCUAUATT against Spon1 -0.553
GGAUAUGACCCUAGAUUUATT against Gpm6b 0.897
GGAAGAACUCAAGAGGGAATT against Plpp2 -0.775
GCUCUGCUAACUUACAUCUTT against Mtmr11 1.75
GGGUUACGCCUUCAUUAAUTT against Sf3b4 -1.7
GGAGGUAAAGAUCAUGUCATT against Ddr1 -1.39
CCAGGUGGAGUCCAUCUUCTT against Acacb 0.0569
GGAAAACACUUUAAACCAGTT against Afg3l1 -0.671

Random excerpt: 6 records from the list.
z-score, inactive:
GUAAACCACUGAAAAACCATT against Siah1b 0.0622
GCUGCUUUAGCUUAGUUUUTT against Vwa7 0.457
CCCUGUAAUCAGUAGAAGATT against Afap1l2 -0.752
GGUACUGGAGAAAGUCAAGTT against Pi4kb 0.46
GCUGAUGGUGUAUAACUCGTT against Gorasp1 -0.124
GGGAGAUUGAGAACUUUGCTT against Gpx7 -0.269

Next part.

z-score, active:
GGUCAAUGCUGUUUUUGUUTT against Mxi1 2.41
GGUCUUCAGACCAGAAACATT against Hsd3b2 -3.19
GGCUUCAAAACAUUUUCAGTT against Kansl1l 2.81
GCCUCACUUGAUGAAAUGGTT against Sccpdh -2.13
GGAUCUACGCAAGCAAGCATT against Oxnad1 2.12
GGUACCCACUAGAGGAUCATT against Madd -2.61
CCUAUAGCAGUGGUUUUCATT against Ece2 2.22
GGAACGUACAGGAUAAUCUTT against Krt79 4.28
CGUGGUACACUGAAGACUUTT against Mmp1a 2.3
GUUCCACCAGAUUUUCUAATT against Vmn1r28 2.6
GCUGCUCAGUUUCUUCCAATT against H4c9 2.08
GCAAUGAGUACUAUCAUACTT against Gnal -2.71
